This passage reports AC50 results from PubChem BioAssay AID1487 (National Center for Advancing Translational Sciences (NCATS), 2009).

A short description of this test: qHTS Assay for Modulators of Lamin A Splicing. To be noted: HeLa LMNA splicing GFP/RFP minigene ratio, 48 h. A digest of the protocol: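 S3 HeLa stable clones carrying a lamin A-EGFP splicing minigene plus DsRed2 were seeded at 600 cells/well in Opti-MEM with 2% FBS, pin-dosed and incubated 48 h at 37°C. Acumen cytometry (488 nm) gave the GFP/RFP total-intensity ratio.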

Setting [1] is: measured here: GFP splicing reporter channel.
[2] abbreviates: measured here: RFP viability control channel.

The list shows a part of the results. The main result of the screen is listed elsewhere. These columns were measured beside it and carry no call. The list favours compounds with an active or inconclusive main result. Words in brackets tell the shape of the fitted curve; partial curves, single points and poor fits give uncertain potencies.

A word on the AC50: it is the midpoint of the concentration-response curve, whichever way the signal moves. For the compound `Cc1cccc(C(=O)N2CCC(=O)N(C(COCc3ccc(Cl)cc3)Cc3ccccc3)CC2)c1` (configuration not stated), the AC50 is, setting by setting: under setting [1], 12.6 µM [rising, partial curve]; under setting [2], 15.8 µM [rising, partial curve].

As to `CCOC(=O)c1ccc(Nc2ncnc3c2cnn3-c2cccc(Cl)c2)cc1`, the AC50 was 22.4 µM [falling, single point] under setting [1] and 35.5 µM [falling, single point] under setting [2].

Take `N=c1c2c(ncn1Cc1ccco1)Oc1ccc3ccccc3c1C2c1ccccc1` (configuration not stated): the AC50 by setting is: under setting [1], 25.1 µM [falling, partial curve]; under setting [2], 10 µM [falling, single point].

With `Cc1ccc(Nc2nc(N)nc(CN3CCN(Cc4ccc5c(c4)OCO5)CC3)n2)c(C)c1`, the AC50 runs as follows: under setting [1], 8.91 µM [rising, partial curve]; under setting [2], 11.2 µM [rising, partial curve].

Regarding `CC1Cc2cc(S(=O)(=O)NCc3ccccc3Cl)ccc2N1C(=O)C1CCC1` (configuration not stated), the AC50 is 0.0316 µM [falling, full curve] under setting [1] and 10 µM [falling, partial curve] under setting [2].

`COc1cc(/C=C2\SC(=N)N(c3ccc(F)cc3)C2=O)ccc1O`: the AC50 under setting [1] was 14.1 µM [rising, partial curve].

In the case of `COc1ccc2[nH]c(=O)c(CNc3cccc(C)c3)cc2c1`, the AC50 under setting [1] is 0.112 µM [falling, full curve, poor fit].

For the compound `CCOC(=O)Cn1nnnc1CN(Cc1ccccc1)Cc1cc2cc(CC)ccc2[nH]c1=O`, the AC50 under setting [2] was 35.5 µM [rising, single point].

For `O=C(COC(=O)c1ccc(Cl)cc1O)NC(=O)C1CCCCC1`, the AC50 under setting [1] was 0.112 µM [falling, full curve, poor fit].

With `C=CCOc1ccc2nc(NC(=O)OC)[nH]c2c1`, the AC50 was 4.47 µM [rising, single point] under setting [1] and 2.51 µM [rising, full curve] under setting [2].

For `Cc1cccc(N2CCN(C(=O)C3CCCN(S(=O)(=O)c4cnc[nH]4)C3)CC2C)c1` (configuration not stated), under setting [2], the AC50 is 0.0355 µM [rising, full curve, poor fit].

Take `CCCCC(c1nnnn1CC1CCCO1)N1CCN(c2nc3ccccc3s2)CC1` (configuration not stated): the AC50 reads like this: under setting [1], 11.2 µM [rising, partial curve]; under setting [2], 17.8 µM [rising, partial curve].

Consider `Cc1ccc(-c2noc(CSc3nnc(CCc4ccccc4)n3-c3ccccc3)n2)cc1`, for which the AC50 under setting [2] is 17.8 µM [rising, single point].

With `COc1ccccc1N1CCN(CC(=O)NCCc2ccc(S(N)(=O)=O)cc2)CC1`, the AC50 runs as follows: under setting [1], 0.00447 µM [falling, full curve, poor fit]; under setting [2], 0.562 µM [falling, partial curve, poor fit].

On to `CCn1c(=O)c(C(=O)NNS(=O)(=O)c2ccc(C)cc2)c(O)c2ccccc21`, for which the AC50 runs as follows: under setting [1], 31.6 µM [rising, single point]; under setting [2], 35.5 µM [rising, single point].

Take `COc1ccc(-n2ncc3c(NCCC4=CCCCC4)ncnc32)cc1`: the AC50 under setting [1] is 1.58 µM [falling, partial curve, poor fit].

In the case of `CCNC(=S)N(CCc1c(C)[nH]c2ccc(C)cc12)Cc1cccs1`, the AC50 was 0.891 µM [rising, partial curve] under setting [1] and 1.26 µM [rising, single point] under setting [2].

On to `COc1nc(OCC#N)nc(N2CCCCC2)n1`, for which the AC50 under setting [2] is 0.794 µM [falling, partial curve].

Consider `C/C(=N\NC(=O)C1CCCN(S(=O)(=O)c2ccccc2)C1)c1ccccn1` (configuration not stated), for which the AC50 under setting [2] is 10 µM [rising, partial curve].

Regarding `Cc1cc2c(N3CCCCC3C)ncnc2s1` (configuration not stated), under setting [2], the AC50 is 11.2 µM [rising, partial curve, poor fit].

On to `O=C(Nc1cccc(OC(F)(F)F)c1)c1ccc(Br)o1`, for which the AC50 under setting [1] is 35.5 µM [rising, single point].

Turning to `Cc1ccc(/C=[N+](/C)[O-])cc1`, the AC50 under setting [1] is 0.0794 µM [rising, full curve, poor fit].

As to `COc1ccc(Cl)cc1NC(=O)CN(C)CC(=O)Nc1ccccc1N1CCOCC1`, the half-maximal activity concentration (AC50) under setting [2] is 0.0126 µM [rising, full curve, poor fit].

With `Cc1cccc(NC(=O)/C=C/c2ccc(Cl)cc2)n1`, under setting [2], the AC50 is 14.1 µM [rising, partial curve].

With `CC(C)Nc1c([N+](=O)[O-])c(=O)oc2ccccc12`, the concentration at half-maximal activity (AC50) under setting [1] is 14.1 µM [falling, partial curve, poor fit] and the AC50 under setting [2] was 12.6 µM [falling, partial curve].

Turning to `O=C(CCS(=O)(=O)Cc1ccccc1)Nc1nc2c(s1)CCCC2`, the AC50 under setting [1] was 3.16 µM [falling, single point] and the AC50 under setting [2] is 2.82 µM [falling, single point].

In the case of `CC1=CC(C)(C)Nc2ccc(OC(=O)c3ccco3)cc21`, the AC50 under setting [1] is 35.5 µM [falling, single point] and the AC50 under setting [2] was 35.5 µM [falling, single point].

For the compound `Cc1cc(C)c(S(=O)(=O)/N=C2/C=C(Sc3ncn[nH]3)C(=O)c3ccccc32)cc1C`, the AC50 is, setting by setting: under setting [1], 3.98 µM [falling, full curve]; under setting [2], 4.47 µM [falling, full curve, poor fit].

Turning to `COC(=O)CNC(c1ccccc1)c1cc(Cl)ccc1NC(=O)c1cccc(Cl)c1` (configuration not stated), the AC50 was 14.1 µM [rising, single point] under setting [1] and 22.4 µM [rising, single point] under setting [2].

For `COc1c2c(nc3ccccc13)O[C@H]([C@@](C)(O)CO)C2`, the AC50 is 0.0708 µM [falling, full curve, poor fit] under setting [1] and 0.0562 µM [falling, full curve, poor fit] under setting [2].

As for `CC1CN(S(=O)(=O)c2cccc(-c3cn4ccccc4n3)c2)CC(C)O1` (configuration not stated), the AC50 under setting [2] was 17.8 µM [rising, single point].

For `CCCCC(=O)Nc1ccc(C(=O)NNC(=S)NC(=O)c2cccs2)cc1`, the AC50 under setting [2] is 22.4 µM [rising, partial curve, poor fit].

With `CCOC(=O)Cn1c(CN2CCc3ccccc3C2)nc2c1c(=O)n(C)c(=O)n2C`, the AC50 was 5.62 µM [falling, single point] under setting [1] and 3.98 µM [falling, single point] under setting [2].

With `COc1ccc(OC)c(CNC(=O)CCn2c(=O)c3cccn3c3ccc(F)cc32)c1`, the AC50 is 12.6 µM [falling, partial curve] under setting [1] and 12.6 µM [falling, partial curve, poor fit] under setting [2].

For `COc1ccc(CCNC(=S)Nc2ccc(C)cc2C)cc1`, the AC50 under setting [2] is 35.5 µM [rising, single point].

`Cn1nc(CC(=O)NC2CCCCC2)c2ccccc2c1=O`: the AC50 reads like this: under setting [1], 12.6 µM [rising, partial curve]; under setting [2], 14.1 µM [rising, partial curve].

On to `COc1cc(/C=N/NC(=S)NCc2ccco2)cc(OC)c1OC`, for which the half-maximal activity concentration (AC50) under setting [2] was 0.00501 µM [rising, full curve, poor fit].

Regarding `Cc1cc2cc(C=C(C#N)C#N)c(Cl)nc2cc1C`, the AC50 under setting [2] is 11.2 µM [rising, partial curve, poor fit].

As for `CCOc1ccc(CC(=O)N2CCN=C2SCc2ccc([N+](=O)[O-])cc2)cc1`, the AC50 under setting [2] was 11.2 µM [rising, partial curve].

Turning to `COc1ccc([N+](=O)[O-])cc1NC(=S)NC(NC(=O)Cc1ccc(OC)c(OC)c1)C(Cl)(Cl)Cl` (configuration not stated), the AC50 by setting is: under setting [1], 12.6 µM [falling, partial curve]; under setting [2], 14.1 µM [falling, partial curve].

Turning to `COc1ccc(C2C(C(=O)/C=C/c3ccco3)=C(O)C(=O)N2CCN2CCOCC2)cc1OC` (configuration not stated), the AC50 was 0.794 µM [rising, full curve] under setting [1] and 0.631 µM [rising, single point] under setting [2].

Consider `CN1c2ccccc2C(C)(C)C12CC(c1ccc(Cl)c(S(=O)(=O)N3CCCC3)c1)=NO2` (configuration not stated), for which the AC50 under setting [2] is 1.78 µM [rising, partial curve].

Consider `Cc1ccc(S(=O)(=O)Nc2cc(=O)[nH]c(SCc3ccc(Cl)cc3)n2)cc1`, for which the AC50 under setting [2] is 17.8 µM [rising, single point].

In the case of `COc1cc(NC(=O)Cn2ncc3c([nH]c4ccc(C)cc43)c2=O)cc(OC)c1OC`, the AC50 was 0.00316 µM [falling, full curve, poor fit] under setting [1] and 0.00316 µM [falling, full curve] under setting [2].

Turning to `CC(C)(C)NCC(=O)N/N=C/c1ccc(OCc2ccccc2)cc1`, the AC50 under setting [1] is 1.58 µM [falling, full curve].

As for `COc1ccc(NS(=O)(=O)c2cc(NC(=O)c3cnccn3)ccc2OC)cc1Br`, under setting [2], the AC50 is 31.6 µM [rising, single point].

As for `CC(=O)C(C(C)=O)c1c(Cl)c(O)c(O)c2c(C(=O)c3ccccc3)coc12`, the AC50 reads like this: under setting [1], 2.51 µM [falling, single point]; under setting [2], 35.5 µM [falling, single point].

As for `COc1cc(C(=S)N2CCCC2)cc(Cl)c1OCC(=O)Nc1ccc(C)cc1C`, the half-maximal activity concentration (AC50) under setting [2] is 20 µM [rising, single point].

With `NNC(=O)c1cccc(COc2ccc3c(c2)CCC3)c1`, the AC50 under setting [2] was 1 µM [falling, full curve, poor fit].

Consider `CCCCC[C@H](O)/C=C/[C@@H]1[C@@H](CCCCCCC(=O)O)[C@@H](O)C[C@H]1O`, for which the AC50 under setting [1] is 2.24 µM [rising, partial curve, poor fit].

On to `COc1ccc(C2Nc3cccc4cccc(c34)N2)cc1`, for which, under setting [1], the AC50 was 1.41 µM [falling, full curve].

Regarding `O=C(O)c1ccc(Cl)c(N2C(=O)Nc3ccccc3N2O)c1`, the half-maximal activity concentration (AC50) under setting [1] is 35.5 µM [falling, single point].

`O=C(c1ccc(COc2ccccc2Cl)o1)N1CCCC1`: the AC50 was 12.6 µM [rising, single point] under setting [1] and 20 µM [rising, partial curve, poor fit] under setting [2].
